This is an account of results in patent publication US20220025331A1, “METHODS AND SYSTEMS FOR IMPROVING CELLS FOR USE IN THERAPY” (priority 2017, published 2022).

The test system of this data set is P3 foAC neocartilage. Briefly: Phase 2: cytochalasin D and hyaluronidase treatment of P3 (passaged, not redifferentiated) neocartilage. The format is cell-based, sheep. To be noted: without aggregate redifferentiation. The procedure:
Chondrocyte Isolation: Fetal ovine articular chondrocytes (foACs) were harvested from the patellofemoral surfaces of 120-day gestation Dorper cross sheep obtained as medical waste (UC Davis School of Veterinary Medicine). Cartilage from the whole surface of both condyles and the trochlear groove was minced into approximately 1 mm^3 pieces, then washed and centrifuged (500 G for 5 minutes) three times with Dulbecco's Modified Eagle Medium containing 4.5 g/L glucose and GlutaMAX (DMEM; Gibco) and 2% (v/v) penicillin/streptomycin/fungizone (PSF; Lonza). The tissue was digested in 0.2% (w/v) collagenase type II (Worthington) in DMEM containing 3% (v/v) fetal bovine serum (FBS; Atlanta Biologicals) for 18 hours at 37° C. with gentle rocking. […]
Chondrocyte Expansion and Redifferentiation: Previously frozen P0 foACs were seeded in T-225 flasks at 1.5×10^4 cells/cm^2 and expanded in chemically defined chondrogenic medium (CHG medium) (DMEM containing 1% PSF, 1% ITS+ premix (BD Biosciences), 1% non-essential amino acids (Gibco), 100 nM dexamethasone (Sigma), 50 mg/mL ascorbate-2-phosphate (Sigma), 40 g/mL L-proline (Sigma), and […] sodium pyruvate (Sigma)) with 2% FBS and chondrogenically tuned TFP supplementation (1 ng/mL TGF-μ1, 5 ng/mL bFGF, 10 ng/mL PDGF; al from PeproTech). […] Following dissociation of the aggregates, cells were filtered through a 70 μm cell strainer and counted. […]

As for `C=C1[C@@H](C)[C@H]2[C@H](Cc3ccccc3)NC(=O)[C@]23[C@H](OC(C)=O)/C=C/[C@@](C)(O)C(=O)[C@@H](C)C/C=C/[C@H]3[C@@H]1O` [cytochalasin D], the “collagen I and collagen II production” value was “Incapable of decreasing collagen I production and increasing collagen II production”.

As to hyaluronidase, the “collagen I and collagen II production” value was “Incapable of decreasing collagen I production and increasing collagen II production”.
